Drawing on PubChem BioAssay AID1347423 (Functional Genomics Laboratory (NCATS/FGL), 2020), this text covers z-score for 30 sequences.

Out of some 52,000 sequences screened, about 210 (0.4%) were called active.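 The calls were made as follows: active = gene whose silencing raises cell survival under the drug, median off-target-corrected z-score across its silencing RNAs 2 or more; inactive = the rest.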 The list shows a part of the results.

A short description of this assay: Resistance to Poly (ADP-Ribose) Polymerase inhibitor: Gene Identification via Genome-wide siRNA Screen. Conditions: mouse BRCA2 R2336H ES cells, olaparib, CellTiter-Glo viability; active compounds read high. A digest of the protocol: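 Genome-wide siRNA screen (3 siRNAs/gene, 20 nM) in mouse ES cells carrying hypomorphic BRCA2 R2336H; olaparib 500 nM added 48 h post-transfection, CellTiter-Glo viability 72 h later. Normalized to plate-median negative control; MAD z-scores, gene median, seed-adjusted.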
(In ATP-based viability assays light output follows the ATP content of the culture.)
GGGAUGUGAGCUUGGACUUTT against Phox2b: the z-score is inactive: -0.891. Next, GGAUGAUCGCUUUUGCUAUTT against Drd1ip: inactive: 0.327; “GGCAUCUCUUCCAAGUUGGTT against 2410129H14Rik”: inactive: 0.351. Under AUGCAUGAAAUCAUGUUGATT against Ndufa4 stands inactive: 0.492. Next, CGAUUUAAGGAUUUUUACCTT against Tes3: inactive: -0.423; GGCCAAAGGCUCAGAUGAUTT against Hic2: inactive: -2.59; CGAGAUCAUCUCAAAUAUCTT against Man2a1: inactive: 0.266. As for GGACAGGAAUGCAUUUGUCTT against Cyfip2, the z-score is inactive: 0.43. Next, GUUCUUGGCAACAUGGCAGTT against Olfr551: inactive: -1.3; GCUGUUAAGUAAUGACAGATT against Chst7: inactive: -0.204.

For GCACAAUCCCAACUUGGAATT against Retnlg, the z-score is inactive: 1.34. Under CCAUCUACACUUCCCUGCATT against BC048403 stands inactive: -1.64; under GGAAAGGUAAUGCAUCACATT against Rev3l, inactive: -1.42. Regarding GCUGUCUGAUUGGGUCCUUTT against Lag3, the z-score is inactive: 0.168. Next, CGGUCUAAAUUUCCGGUCATT against NE: inactive: 1.51. As for GGGUUUUCUCAUUGUCUUUTT against Rce1, the z-score is inactive: -0.507. Next, GGUGACACUCAAGGUGUCATT against AA691260: inactive: 1.23; AUCAGUGGGUUAAAUAAAGTT against Cox11: inactive: -0.169; GGACAAACAGAACACAGUGTT against Ngfr: inactive: -0.618.

Regarding CCCACAAGUGUAAAGAUCGTT against Ebag9, the z-score was inactive: -0.282.

On to GCAUCUCGUGAUAUAUAAGTT against Nudt9, for which the z-score is inactive: 0.924.

In the case of GGUGAUGUUCCCUGUUUUCTT against Gstt1, the z-score was inactive: 1.1. Next, CCGUAGUGGUAAACCUGGATT against Gcg: inactive: 1.34; GCGGAUCUGCUUUUUGCACTT against Ttc14: inactive: -0.346; GGUCAAGGUCAAAUAAAAGTT against Lgals2: inactive: 0.525.

Regarding GGACCUCCCACAGUGUUAUTT against Enpp2, the z-score is inactive: 0.697.

For CGUGUAUCGCAGUUUGUCCTT against E2f3, the z-score was inactive: 0.452. With “GGAGCUGGAAGAGGUGUUUTT against 5730593F17Rik”, the z-score was inactive: -1.16. Under GCACGCCUUACUGGAAUCCTT against Bub1 stands inactive: 2.17; under GCAGUGUCGCAUUACAUCGTT against AU024582, inactive: 1.64.
